In assay [1] the target is His-tagged human LRRC25 extracellular domain protein, human LRRC25-His (human) (UniProt Q8N386). Description: ELISA, plate-immobilized antigen. In general terms: In an ELISA, binding on a coated surface is turned into a signal by an enzyme label.
For assay [2], the target named is His-tagged cynomolgus monkey LRRC25 extracellular domain protein, cyno LRRC25-His (cynomolgus monkey). Briefly: ELISA, plate-immobilized antigen.
For assay [3] the target is unchanged. Briefly: ELISA, antibody titrated on plate-immobilized Cyno LRRC25(ECD)-His, A450nm against -log [IgG] (M), right panel.
Assay [4] has as its target His-tagged human LRRC25 extracellular domain protein, human LRRC25-His (human) (UniProt Q8N386). Description: ELISA, antibody titrated on plate-immobilized Human LRRC25(ECD)-His, A450nm against -log [IgG] (M), left panel.
The target of assay [5] is T1, LRRC25(96-115) biotin peptide (human).
T1 sequence (peptide, N-terminal acetyl; C-terminal GGK-Biotin; native Cys changed to Ser): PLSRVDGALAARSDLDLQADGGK
Description: peptide ELISA.

Protein sequences, listed by entry. Tags and fused reporters are not part of them. Lines headed by an entry give the natural chain unless they say otherwise; changes in a name come on top.
UniProt Q8N386: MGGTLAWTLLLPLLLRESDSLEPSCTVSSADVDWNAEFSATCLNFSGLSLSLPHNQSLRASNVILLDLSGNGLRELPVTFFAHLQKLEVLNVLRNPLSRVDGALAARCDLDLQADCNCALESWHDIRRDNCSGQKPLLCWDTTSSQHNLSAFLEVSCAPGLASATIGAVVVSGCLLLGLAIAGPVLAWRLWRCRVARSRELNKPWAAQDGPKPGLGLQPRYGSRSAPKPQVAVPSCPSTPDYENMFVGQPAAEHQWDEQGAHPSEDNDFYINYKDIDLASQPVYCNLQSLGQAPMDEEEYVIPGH

These are yes or no findings as the source states them, for the method shown. Some results given as binding are weak or reduced against the parent protein; the word gives no strength.

B1: anti-LRRC25 chimeric antibody 1E01 (antibody, human IgG4, V domains shown)
VH: DVQLVESGGGLVKPGGSLKLSCAASGFTFSNYAMSWVRQTPEKRLEWVASISRGGNTYYPDSVKGRFTISRDNARNILYLQMSSLRSEDTAIYYCTRGNYGSSLFAYWGQGTLVTVSA
VL: DIVLTQSPASLTVSLGQRATISCRASKSVSTSGYSYMHWYQQKPGQPPKLLIYLASNLESGVPARFSGSGSRTDFTLTIDPVEADDAATYYCQQNNEDPWTFGGGTKLEIKR
Turning to B1, the binding entry in assay [1], in assay [2], in assay [3], in assay [4] and in assay [5] was “binds” throughout.

B2: anti-LRRC25 chimeric antibody 1A01 (antibody, human IgG4, V domains shown)
VH: EVKLLESGGGLVKPGGSLKLSCAASGFTFSSYAMSWVRQTPEKRLEWVASISRGGNTYYPDSVKGRFTISRDNARNILYLQMSSLRSEDTAMYYCARGNYGNSPFAYWGQGTLVTVSA
VL: DIVMTQSPASLAVSLGQRATISCRASKSVSTSGYSYMHWYQQKPGQPPKLLIYLASNLESGVPARFSGSGSGTDFTLNIHPVEEEDAATYYCQHSRELPFTFGSGTKLEIKR
Take B2: the binding entry in assay [2] and in assay [5] was “binds” throughout.

B3: anti-LRRC25 chimeric antibody 1H09 (antibody, human IgG4, V domains shown)
VH: DVQLVESGGGLVKPGGSLKLSCAASGFTFSSYAMSWVRQTPEKRLEWVASISRGGNTYYPDSVKGRFTISRDNARNILYLQMSSLRSEDTAMYYCARGNYGNSPFAYWGQGALVTVSA
VL: DVVMTQTPASLAVSLGQRATISCRASESVDSYGNSFMHWYQQKPGQPPKLLIYLASNLESGVPARFSGSGSRTDFTLTIDPVEADDAATYYCQQNNEDPFTFGSGTKLEIKR
In the case of B3, the binding result in assay [5] is recorded as “binds”.

B4: anti-LRRC25 chimeric antibody 1B03 (antibody, human IgG4, V domains shown)
VH: EVQLVESGGGLVKPGGSLKLSCAASGFTFSSYAMSWVRQTPEKRLEWVASISRGGNTYYPDSMKGRFTISRDNARNILYLQMSSLRSEDTAMYYCARGQELRLFAYWGQGTLVTVSA
VL: QILLTQSPASLAVSLGQRATISCRASESVDSYGNSFMHWYQQKPGQPPKLLIYLASNLESGVPARFSGSGSRTDFTLTIDPVEADDAATYYCQQNNEDPWTFGGGTKLEIKR
With B4, the binding entry in assay [2] and in assay [5] was “binds” throughout.

B5: anti-LRRC25 chimeric antibody 1C10 (antibody, human IgG4, V domains shown)
VH: EEKLDESGGGLVKPGGSLKLSCAASGFTFSSYAMSWVRQTPEKRLEWVASISRGGNTYYPDSVKGRFTISRDNARNILYLQMSSLRSEDTAMFYCARGDYGSSLFAYWGQGTLVTVSA
VL: DIVMTQAAFSNPVTLGTSASISCRSSKSLLHSNGITYLYWYLQKPGQSPQLLIYQMSNLASGVPDRFSSSGSGTDFTLRISRVEAEDVGVYYCAQNLELPFTFGSGTKLEIKR
In the case of B5, the binding entry in assay [2] and in assay [5] was “binds” each time.

B6: anti-LRRC25 chimeric antibody 1F01 (antibody, human IgG4, V domains shown)
VH: EVKLEESGGGLVKPGGSLKLSCAASGFTFSNYAMSWVRQTPEKRLEWVASISRGGNTYYPDSVKGRFTISRDNARNILYLQMSSLRSEDTATYFCTKGNYGSSPFAYWGQGTLVTVSA
VL: DIQMTQSPASLSASVGETVTITCRASENIYSYLAWYQQKQGKSPQLLVYNAKTLAEGVPSRFSGSGSGTQFSLKINSLQPEDFGSYYCQHHYGTPFTFGSGTKLEIKR
Regarding B6, in assay [5], the binding result is “binds”.

B7: anti-LRRC25 chimeric antibody 3C07 (antibody, human IgG4, V domains shown)
VH: EVKLDESGGGLVKPGGSLKLSCAASGFTFSRYAMSWVRQTPEKRLEWVASISRGGSTYYPDSVKGRFTISRDIARDILYLQMSSLRSEDTAMYYCARGNYGSSLFAYWGQGTLVTVSA
VL: DIVMTQAAFSNPVTLGTSASISCRSSKSLLHSNGITYLYWYLQKPGQSPQLLIYQMSNLASGVPDRFSSSGSGTDFTLRISRVEAEDVGVYYCAQNLELPWTFGGGTKLEIKR
Take B7: the binding entry in assay [2] is “binds”.

B8: anti-LRRC25 chimeric antibody 1E11 (antibody, human IgG4, V domains shown)
VH: EVQLLETGGGLVKPGGSLKLSCAASGFTFSSSAMSWVRQTPEKRLEWVTSISRGGNTYYPDSVKGRFTISRDNARNILYLQMSSLRSEDTAMYYCARGQELRLFAYWGQGTLVTVSA
VL: DIVMTQDAFSNPVTLGTSASISCRSSKSLLHSNGITYLYWYLQKPGQSPQLLIYQMSNLASGVPDRFSSSGSGTDFTLRISRVEAEDVGVYYCAQNLELPFTFGSGTKLEIKR
Regarding B8, the binding entry in assay [2] and in assay [5] was “binds” each time.

B9: anti-LRRC25 chimeric antibody 1A03 (antibody, human IgG4, V domains shown)
VH: EVQLVESGGGLVKPGGSLKLSCAASGFTFSSSAVSWVRQTPEKRLEWVASISRGGNTYYPDSVKGRFTISRDNARNILYLQMSSLRSEDTAMYYCARGQELRLFAYWGQGTLVTVSA
VL: DIVMTQAAFSNPVTLGTSASISCRSSKSLLHSNGITYLYWYLQKPGQSPQLLIYQMSNLASGVPDRFSSSGSGTDFTLRISRVEAEDVGVYYCAQNLELPPTFGGGTKLEIKR
Regarding B9, the binding entry in assay [5] is “binds”.

B10: anti-LRRC25 chimeric antibody 3F06 (antibody, human IgG4, V domains shown)
VH: DVMLVESGGGLVKPGGSLKLSCAASGFTFSSYAMSWVRQTPDKRLEWVASISSSGNTYYPDTMKGRFTISRDNARNILYLQMSSLRSEDTAMYYCARGLTGTLFAYWGQGTLVTVSA
VL: DIVMTQDAPSVPVTPGESVSISCRSSKSLLHSNGITFLYWFLQKPGQSPQLLIYQMSNLASGVPDRFSSSGSGTDFTLRISRVEAEDVGVYYCAQNLELPFTFGSGTKLEIGR
As for B10, the binding result in assay [5] was “binds”.

B11: anti-LRRC25 chimeric antibody 1H04 (antibody, human IgG4, V domains shown)
VH: EVQLVESGGGLVKPGGSLKLSCAASGFTFSNSAMSWVRQTPEKRLEWVASISRGGKTYYPDSVKGRFTISRDNARNILYLQMSSLRSEDTAMYYCARGQELRLFAYWGQGTLVTVSA
VL: DIVMTQDAFSNPVTLGTSASISCRSSKSLLHSNGITYLYWYLQKPGQSPQLLIYQMSNLASGVPDRFSSSGSGTDFTLRISRVEAEDVGVYYCAQNLELPFTFGSGTKLEIKR
Take B11: the binding result in assay [5] is reported as “binds”.

B12: anti-LRRC25 chimeric antibody 3A08 (antibody, human IgG4)
heavy: DVKLVESGGGLVKPGGSLKLSCAVSGFTLSSYAMSWVRQTPEKRLEWVASISRGGSTYYPDSVKGRFTISRDNGRNILNLQMSSLRSEDTAIYYCARGGGSTMITSLFAYWGQGTLVTVSAASTKGPSVFPLAPCSRSTSESTAALGCLVKDYFPEPVTVSWNSGALTSGVHTFPAVLQSSGLYSLSSVVTVPSSSLGTKTYTCNVDHKPSNTKVDKRVESKYGPPCPPCPAPEFLGGPSVFLFPPKPKDTLMISRTPEVTCVVVDVSQEDPEVQFNWYVDGVEVHNAKTKPREEQFNSTYRWSVLTVLHQDWLNGKEYKCKVSNKGLPSSIEKTISKAKGQPREPQVYTLPPSQEEMTKNQVSLTCLVKGFYPSDIAVEWESNGQPENNYKTTPPVLDSDGSFFLYSRLTVDKSRWQEGNVFSCSVMHEALHNHYTQKSLSLSLGK
light: DIVMTQAAFSNPVTLGTSASISCRSSKSLLHSNGITYLYWYLQKPGQSPQLLIYQMSNLASGVPDRFSSSGSGTDFTLRISRVEAEDVGVYYCAQNLELPFTFGSGTKLEIKRTVAAPSVFIFPPSDEQLKSGTASVVCLLNNFYPREAKVQWKVDNALQSGNSQESVTEQDSKDSTYSLSSTLTLSKADYEKHKVYACEVTHQGLSSPVTKSFNRGEC
Turning to B12, the binding entry in assay [1] and in assay [4] was “binds” each time.

B13: anti-LRRC25 chimeric antibody 2D09 (antibody, human IgG4, V domains shown)
VH: QVTLKESGPGTVQPSQTLSLTCSFSGFSLSTSGMGVSWIRQSSGKGLEWLAHIYWDDDKRYNPSLKSRLTISKDTSSNQVFLRITSVDTADTATYYCARRPRDFYGGGHWYFDVWGAGTTVTVSS
VL: DVVMTQTPKSMSMSVGERVTLNCKASENVGTYVSWYQQKPEQSPKLLIYGASNRYTGVPDRFTGSGSATDFTLTISSMQAEDLADYHCGQSYNFPLTFGAGTKLELKR
In the case of B13, the binding result in assay [1], in assay [2], in assay [3] and in assay [4] was “binds” throughout.

B14: anti-LRRC25 chimeric antibody 2C07 (antibody, human IgG4, V domains shown)
VH: QITLKESGPGILQPSQTLSLTCSFSGFSLTTSGMGVSWIRQPSGKGLEWLAHIYWDDDKRYNPSLRSRLTISKDTSSNQVVLKLTNVDTADTATYYCARRARDYYNSGHWYFDVWGAGTTVTVSS
VL: DVVMTQTPKSMSMSVGERVTLSCKASENVGTYVSWYQQKPDQSPKLLIFGASNRYTGVPDRFTGSGSATDFTLTISSVQAEDLADYHCGQTYSFPFTFGSGTKLEIKR
As to B14, the binding entry in assay [2] is recorded as “binds”.

B15: anti-LRRC25 chimeric antibody 2C08 (antibody, human IgG4, V domains shown)
VH: QVTLKESGPGILQPSQTLSLTCSFSGFSLSTSGMGVSWIRQPSGKGLEWLAHIYWDDDKRYNPSLKSRLTLSKDTSSNQVFLKITSVDTADTATYYCARRPRDYYGGGHWYFDVWGAGTTVTVSS
VL: DIVMTQSPKSMSMSVGERVTLTCKASENVGTYVSWYQQKAEQSPKLLIYGASNRYTGVPDRFTGSGSATDFTLTISNVQTEDLADYHCGQSYSYPFTFGSGTKLEIKR
As to B15, the binding result in assay [2] was “binds”.

B16: anti-LRRC25 chimeric antibody 2A07 (antibody, human IgG4, V domains shown)
VH: EVKLDESGGGLVQPGGSLKLSCATSGFTFSDYYMYWVRQTPEKRLEWVAYISNGGGSTYYPDTVKGRFTISRDNAKNTLYLQMSRLKSEDTAMYYCARSTAVSQMDYWGQGTSVTVSS
VL: DIVLTQSPAIMSASPGEKVTLTCSASSSVRSSYLNWYQQKPGSSPKLWIHGTSNLASGVPARFSGSGSGTSYSLTISSMEAEDAASYFCHQWSSYPPTFGAGTKLELKR
Turning to B16, the binding result in assay [2] is on record as “binds”.
